Assay results published in PubChem BioAssay AID1794844 (National Center for Advancing Translational Sciences (NCATS), 2023).
Hit rate of the full screen: of about 2,800 compounds, fewer than 10 were called active. Roughly 7% stayed inconclusive and do not appear here. The call rests on the fitted dose curve; in most records, active means well fitted inhibition curve with a large enough effect; inconclusive means small, poorly fitted or top-dose-only effect; inactive means no such curve, though single readings can be large or run the other way. Some of the results follow.

Amino acid sequences for entries named in this document (tags omitted). A change or cut given only in a name is not applied to a line headed by its entry.
UniProt C7C422: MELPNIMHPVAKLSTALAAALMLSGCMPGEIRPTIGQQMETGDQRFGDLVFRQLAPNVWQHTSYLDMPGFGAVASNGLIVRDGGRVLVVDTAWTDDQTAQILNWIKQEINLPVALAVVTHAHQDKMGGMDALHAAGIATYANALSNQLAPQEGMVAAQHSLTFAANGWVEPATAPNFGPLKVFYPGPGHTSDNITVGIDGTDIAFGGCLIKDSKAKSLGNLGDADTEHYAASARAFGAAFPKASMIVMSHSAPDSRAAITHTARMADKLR

Target: Metallo-beta-lactamase type 2 (Klebsiella pneumoniae) (UniProt C7C422)
Test: qHTS to identify inhibitors of the New Delhi Metallo-beta-lactamase (NDM): Nitrocefin screen against the machine-based learning selections. Further: % of control where 0% means no effect.
Conditions: NDM-1 enzyme, nitrocefin hydrolysis, absorbance 485 nm; at 57.5 µM (top of the series) unless noted
Procedure, shortened: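 Hydrolysis by 2 nM NDM-1 was followed by absorbance after >30 min compound preincubation in HEPES pH 7.0 buffer with 1 uM Zn2SO4. For nitrocefin (16.7 uM, 15 min, 485 nm) and meropenem (50 uM, 30 min, 300 nm), each substrate ran on separate plates.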

| SMILES | activity, negative = inhibition |
| --- | --- |
| CN(CCc1ccccn1)C[C@H]1CN2CC[C@H]1C[C@@H]2CNC(=O)c1ccc(C(F)(F)F)cc1 | inactive: 1.27% [at 38.4 µM] |
| CCC(CC)c1cc([C@H]2CN3CC[C@H]2C[C@@H]3CNC(=O)COc2ccccc2)nc(-c2ccncc2)n1 | inactive: 65.9% [at 38.4 µM] |
| O=C(Cc1cccnc1)N1[C@H]2CC[C@@H]1c1cnc(-c3ccc(F)cc3)nc1C2 | inactive: -4.53% [at 38.4 µM] |
| C#C[C@H]1CN2CC[C@H]1C[C@@H]2CNC(=O)Nc1cccc(SC)c1 | inactive: -8.11% |
| COc1ccc(C(=O)NC[C@H]2C[C@@H]3CCN2C[C@@H]3c2cc(-c3ccc(N(C)C)cc3)nc(C)n2)cc1 | inactive: 4.09% [at 38.4 µM] |
| C#CCN(C)C[C@H]1CN2CC[C@H]1C[C@@H]2CNC(=O)Nc1ccc(C(C)=O)cc1 | inactive: 1.06% |
| C=C[C@H]1CN2CC[C@H]1C[C@@H]2CNS(=O)(=O)c1cccs1 | inactive: 11.5% |
| CC(C)NC(=O)[C@H]1CN2CC[C@H]1C[C@@H]2Cn1cc(CO)nn1 | inactive: -2.26% |
| O=C(NCc1ccc(F)cc1)[C@H]1CN2CC[C@H]1C[C@@H]2Cn1cc(C2(O)CCCC2)nn1 | inactive: 0.796% |
| Cc1nc(-c2ccco2)cc([C@H]2CN3CC[C@H]2C[C@@H]3CNC(=O)C(C)(C)C)n1 | inactive: 0.498% |
| Cc1nc(-c2ccccc2Br)cc([C@H]2CN3CC[C@H]2C[C@@H]3CNC(=O)c2cccs2)n1 | inactive: -0.933% [at 38.4 µM] |
| C=CCN(C)C(=O)[C@H]1CN2CCC1C[C@@H]2Cn1cc(CO)nn1 (some centres undefined) | inactive: -7.21% |
| O=C1N(Cc2cccnc2)C[C@H]2CN(C3CCOCC3)CCN12 | inactive: -4.41% |
| CCNC(=O)NC[C@H]1C[C@@H]2CCN1C[C@@H]2c1cc(C2CCCCC2)nn1C | inactive: 1.2% |
| CCCS(=O)(=O)N1C[C@@H]2C[C@H](C1)c1ccc(-c3ccc4ccccc4c3)c(=O)n1C2 | inactive: -3.88% |
| CC(=O)N1C[C@@H]2C[C@H](C1)c1ccc(NC(=O)Nc3ccccc3)c(=O)n1C2 | inactive: -10.9% |
| CCCS(=O)(=O)Nc1ccc(=O)n2c1[C@@H]1C[C@@H](CN(C(=O)c3ccc(F)cc3)C1)C2 | inactive: -2.95% |
| COCCNC(=O)[C@H]1CN2CCC1C[C@@H]2Cn1cc(CCO)nn1 (some centres undefined) | inactive: 0.0925% |
| O=C(O)c1cn(Cc2ccc(F)cc2)nn1 | inactive: -18.5% [at 38.4 µM] |
| O=C(NC[C@H]1C[C@@H]2CCN1C[C@@H]2CN1CCN(c2ccc(F)cc2)CC1)c1ccco1 | inactive: 0.284% |
| CC[C@H]1CN2CC[C@H]1C[C@@H]2CNS(=O)(=O)c1ccc(NC(C)=O)cc1 | inactive: 10.9% |
| CCCCc1cn(C[C@H]2CC3CCN2C[C@@H]3C(=O)NCc2ccc3c(c2)OCO3)nn1 (some centres undefined) | inactive: -7.49% |
| CC(C)(C)c1ccc(NC(=O)OC[C@H]2C[C@@H]3CCN2C[C@@H]3c2cc(C3CCCC3)nc(-c3ccncc3)n2)cc1 | inactive: 13.3% [at 38.4 µM] |
| O=C(Cc1ccc(F)cc1Cl)N1C[C@H]2CC[C@@H]1CN(Cc1cccnc1)C2 | inactive: -6.78% [at 38.4 µM] |
| CC[C@H]1CN2CC[C@H]1C[C@@H]2CNC(=O)c1ccc(-c2ccccc2)cc1 | inactive: -0.226% |
| C=C[C@H]1CN2CC[C@H]1C[C@@H]2CNC(=O)Nc1ccc(C(C)(C)C)cc1 | inactive: -15% |
| Cc1nc(-c2ccc(C(F)(F)F)cc2)cc([C@H]2CN3CC[C@H]2C[C@@H]3CNC(=O)N2CCOCC2)n1 | inactive: 1.53% [at 38.4 µM] |
| Cn1nc(-c2ccccc2)cc1[C@H]1CN2CC[C@H]1C[C@@H]2CNC(=O)c1ccco1 | inactive: -7.49% |
| CCNC(=O)NC[C@H]1C[C@@H]2CCN1C[C@@H]2c1cc(-c2ccc(F)cc2)nn1C | inactive: 0.558% |

Random excerpt: two entries already listed, in no set order.

| SMILES | activity, negative = inhibition |
| --- | --- |
| C#CCN(C)C[C@H]1CN2CC[C@H]1C[C@@H]2CNC(=O)Nc1ccc(C(C)=O)cc1 | inactive: 1.06% |
| CCNC(=O)NC[C@H]1C[C@@H]2CCN1C[C@@H]2c1cc(-c2ccc(F)cc2)nn1C | inactive: 0.558% |
